Measured values: US10463644B2, “Uses of sesquiterpene lactone compounds and their derivatives in drugs preparation” (ACCENDATECH, priority 2013, dated 2019)
Some results were stated once for a whole list of compounds, not compound by compound.

Columns and labels:
Format in all cases: in vivo, rat
Settings in all cases: both large dose group and small dose group
[1] = tested on: PGE2 secreted by synoviocyte; assay: Content of PGE2 in culture supernatant of synoviocyte of RA model rats given test compound
Source text: (§1) Take Compound 1-50 prepared as per the method according to the present invention and employ the method provided in Reference to prepare model, group drugs and prepare culture supernatant of rat synoviocyte.
(§2) Employ the method provided in Reference to investigate the effects of the test compounds on the synoviocyte to secrete TNF-α and PGE2. Employ the method provided in Reference to investigate the effects of the test compounds on the synoviocyte to secrete IL-1β.
(§3) The experimental data of the test compound 1-50 at a dose of 30 mg/kg.2d as well as the normal control and NaCl group are as follows: […]

[2] = tested on: IL-1β secreted by synoviocyte; assay: Content of IL-1β in culture supernatant of synoviocyte of RA model rats given test compound
Source text: as §1, §2, §3

[3] = tested on: TNF-α secreted by synoviocyte; assay: Content of TNF-α in culture supernatant of synoviocyte of RA model rats given test compound
Source text: as §1, §2, §3

C=C1C(=O)O[C@@H]2[C@@H]3[C@@H](CC[C@@]3(C)O)C(=C)CC[C@@H]12 [Compound 48]
obviously reduce: effect on content of PGE2 secreted by synoviocyte [1] | effect on content of IL-1β secreted by synoviocyte [2] | effect on content of TNF-α secreted by synoviocyte [3]

CN(C)C[C@@H]1C(=O)O[C@H]2[C@H]1CCC1(CC1)[C@@H]1CCC3(CC3)[C@H]21.Cl [Compound 28]
obviously reduce: effect on content of PGE2 secreted by synoviocyte [1] | effect on content of IL-1β secreted by synoviocyte [2] | effect on content of TNF-α secreted by synoviocyte [3]

O=C1O[C@H]2[C@@H](CCC3(CC3)[C@@H]3CCC4(CC4)[C@H]23)[C@@H]1Cn1cc(CCCCO)nn1 [Compound 42]
obviously reduce: effect on content of PGE2 secreted by synoviocyte [1] | effect on content of IL-1β secreted by synoviocyte [2] | effect on content of TNF-α secreted by synoviocyte [3]

CN1CCN(CC2C(=O)O[C@@H]3[C@@H]4[C@@H](CCC45CC5)C4(CC[C@@H]23)CC4)CC1 (stereo partly drawn) [Compound 37]
obviously reduce: effect on content of PGE2 secreted by synoviocyte [1] | effect on content of IL-1β secreted by synoviocyte [2] | effect on content of TNF-α secreted by synoviocyte [3]

O=C1O[C@H]2[C@@H](CCC3(CC3)[C@@H]3CCC4(CC4)[C@H]23)[C@@H]1Cn1cc(-c2ccccc2)nn1 [Compound 43]
obviously reduce: effect on content of PGE2 secreted by synoviocyte [1] | effect on content of IL-1β secreted by synoviocyte [2] | effect on content of TNF-α secreted by synoviocyte [3]

O=C1O[C@H]2[C@@H](CCC3(CC3)[C@@H]3CCC4(CC4)[C@H]23)[C@@H]1CNCc1ccccc1 [Compound 33]
obviously reduce: effect on content of PGE2 secreted by synoviocyte [1] | effect on content of IL-1β secreted by synoviocyte [2] | effect on content of TNF-α secreted by synoviocyte [3]

CC1=C2CC[C@@](C)(O)[C@@H]2[C@H]2OC(=O)[C@@H](CN(C)C)[C@@H]2CC1 [Compound 23]
obviously reduce: effect on content of PGE2 secreted by synoviocyte [1] | effect on content of IL-1β secreted by synoviocyte [2] | effect on content of TNF-α secreted by synoviocyte [3]

O=C1O[C@H]2[C@@H](CCC3(CC3)[C@@H]3CCC4(CC4)[C@H]23)[C@@H]1CNCCO [Compound 34]
obviously reduce: effect on content of PGE2 secreted by synoviocyte [1] | effect on content of IL-1β secreted by synoviocyte [2] | effect on content of TNF-α secreted by synoviocyte [3]

CN(CCO)C[C@@H]1C(=O)O[C@H]2[C@H]1CCC1(CC1)[C@@H]1CCC3(CC3)[C@H]21 [Compound 40]
obviously reduce: effect on content of PGE2 secreted by synoviocyte [1] | effect on content of IL-1β secreted by synoviocyte [2] | effect on content of TNF-α secreted by synoviocyte [3]

C=C1C(=O)O[C@@H]2[C@@H]3[C@@H](CC[C@@]3(C)O)[C@](C)(O)CC[C@@H]12 [Compound 49]
obviously reduce: effect on content of PGE2 secreted by synoviocyte [1] | effect on content of IL-1β secreted by synoviocyte [2] | effect on content of TNF-α secreted by synoviocyte [3]

COC(=O)c1cn(C[C@@H]2C(=O)O[C@H]3[C@H]2CCC2(CC2)[C@@H]2CCC4(CC4)[C@H]32)nn1 [Compound 44]
obviously reduce: effect on content of PGE2 secreted by synoviocyte [1] | effect on content of IL-1β secreted by synoviocyte [2] | effect on content of TNF-α secreted by synoviocyte [3]

C=C1C(=O)O[C@@H]2[C@@H]3[C@@H](CCC34CC4)C3(CC[C@@H]12)CC3 [Compound 26]
obviously reduce: effect on content of PGE2 secreted by synoviocyte [1] | effect on content of IL-1β secreted by synoviocyte [2] | effect on content of TNF-α secreted by synoviocyte [3]

C=C1C(=O)O[C@H]2[C@H]1CCC(C)=C1CC[C@@](C)(OC(=O)CCCc3cn(CCCCCCO)nn3)[C@@H]12 [Compound 21]
obviously reduce: effect on content of PGE2 secreted by synoviocyte [1] | effect on content of IL-1β secreted by synoviocyte [2] | effect on content of TNF-α secreted by synoviocyte [3]

COC[C@@H]1C(=O)O[C@H]2[C@H]1CCC1(CC1)[C@@H]1CCC3(CC3)[C@H]21 [Compound 30]
obviously reduce: effect on content of PGE2 secreted by synoviocyte [1] | effect on content of IL-1β secreted by synoviocyte [2] | effect on content of TNF-α secreted by synoviocyte [3]

C=C1C(=O)O[C@H]2[C@H]1CC[C@]1(C)O[C@@]13CC[C@@](C)(O)[C@H]23 [Compound 24]
obviously reduce: effect on content of PGE2 secreted by synoviocyte [1] | effect on content of IL-1β secreted by synoviocyte [2] | effect on content of TNF-α secreted by synoviocyte [3]

CN(C)C[C@@H]1C(=O)O[C@H]2[C@H]1CCC1(CC1)[C@@H]1CCC3(CC3)[C@H]21 [Compound 35]
obviously reduce: effect on content of PGE2 secreted by synoviocyte [1] | effect on content of IL-1β secreted by synoviocyte [2] | effect on content of TNF-α secreted by synoviocyte [3]

C=C1C(=O)O[C@H]2[C@H]1CC[C@@](C)(OC)C1CC[C@@](C)(O)[C@@H]12 (stereo partly drawn) [Compound 47]
obviously reduce: effect on content of PGE2 secreted by synoviocyte [1] | effect on content of IL-1β secreted by synoviocyte [2] | effect on content of TNF-α secreted by synoviocyte [3]

CCOC(=O)[C@@H]1CCCN1C[C@@H]1C(=O)O[C@H]2[C@H]1CCC1(CC1)[C@@H]1CCC3(CC3)[C@H]21 [Compound 29]
obviously reduce: effect on content of PGE2 secreted by synoviocyte [1] | effect on content of IL-1β secreted by synoviocyte [2] | effect on content of TNF-α secreted by synoviocyte [3]

[2H][C@@]1(CN(C)C)C(=O)O[C@@H]2[C@@H]3[C@@H](CCC34CC4)C3(CC[C@H]21)CC3 [Compound 46]
obviously reduce: effect on content of PGE2 secreted by synoviocyte [1] | effect on content of IL-1β secreted by synoviocyte [2] | effect on content of TNF-α secreted by synoviocyte [3]

CC1=C2CC[C@@](C)(O)[C@@H]2[C@H]2OC(=O)[C@@H](CN(C)C)[C@@H]2CC1 [Compound 22]
obviously reduce: effect on content of PGE2 secreted by synoviocyte [1] | effect on content of IL-1β secreted by synoviocyte [2] | effect on content of TNF-α secreted by synoviocyte [3]

O=C1O[C@H]2[C@@H](CCC3(CC3)[C@@H]3CCC4(CC4)[C@H]23)[C@@H]1CSCc1ccccc1 [Compound 32]
obviously reduce: effect on content of PGE2 secreted by synoviocyte [1] | effect on content of IL-1β secreted by synoviocyte [2] | effect on content of TNF-α secreted by synoviocyte [3]

CC1CCN(C[C@@H]2C(=O)O[C@@H]3C4C(CCC45CC5)C4(CC[C@@H]23)CC4)CC1 (stereo partly drawn) [Compound 36]
obviously reduce: effect on content of PGE2 secreted by synoviocyte [1] | effect on content of IL-1β secreted by synoviocyte [2] | effect on content of TNF-α secreted by synoviocyte [3]

CN(C)C[C@@H]1C(=O)O[C@H]2[C@H]1CCC1(CC1)[C@@H]1CCC3(CC3)[C@H]21 [Compound 27]
obviously reduce: effect on content of PGE2 secreted by synoviocyte [1] | effect on content of IL-1β secreted by synoviocyte [2] | effect on content of TNF-α secreted by synoviocyte [3]

O=C1O[C@H]2[C@@H](CCC3(CC3)[C@@H]3CCC4(CC4)[C@H]23)[C@@H]1CN1CCCC1 [Compound 39]
obviously reduce: effect on content of PGE2 secreted by synoviocyte [1] | effect on content of IL-1β secreted by synoviocyte [2] | effect on content of TNF-α secreted by synoviocyte [3]

CCCCN(C)C[C@@H]1C(=O)O[C@H]2[C@H]1CCC1(CC1)[C@@H]1CCC3(CC3)[C@H]21 [Compound 41]
obviously reduce: effect on content of PGE2 secreted by synoviocyte [1] | effect on content of IL-1β secreted by synoviocyte [2] | effect on content of TNF-α secreted by synoviocyte [3]

O=C1O[C@H]2[C@@H](CCC3(CC3)[C@@H]3CCC4(CC4)[C@H]23)[C@@H]1CSc1ccccc1 [Compound 31]
obviously reduce: effect on content of PGE2 secreted by synoviocyte [1] | effect on content of IL-1β secreted by synoviocyte [2] | effect on content of TNF-α secreted by synoviocyte [3]

C=C1CC[C@H]2C(=C)CC[C@H]3C(=C)C(=O)O[C@@H]3[C@@H]12 [Compound 25]
obviously reduce: effect on content of PGE2 secreted by synoviocyte [1] | effect on content of IL-1β secreted by synoviocyte [2] | effect on content of TNF-α secreted by synoviocyte [3]

O=C1O[C@H]2[C@@H](CCC3(CC3)[C@@H]3CCC4(CC4)[C@H]23)[C@@H]1CN1CCOCC1 [Compound 38]
obviously reduce: effect on content of PGE2 secreted by synoviocyte [1] | effect on content of IL-1β secreted by synoviocyte [2] | effect on content of TNF-α secreted by synoviocyte [3]
